According to publication PMC10163288:
The list shows a part of the results.

B1: il2ra_site2_2erj_sap_24_mot_HHH_b1_06697_000000025_0001_41_54_H_._HHH_b1_01777_0001_0000600011_0000001_1_0001_af2pred_0001_af2pred (protein)
chain: SSSSSSSSEERVRELLEEAKHVEDQKRAFELLQEADKIALENNDPEAQQLVQKLARELSSSSSSS
B2: il2ra_site2_3nfp_sap_32_mot_HHH_b2_03211_af2_000000182_0001_18_34_H_._0c3bf8cb9d93094680b22e24baf1e485_0001_0001_0000200030_0000001_0_0001 (protein)
chain: SSSSSRIEEELRKMVEQAIEVARSKNDPELVRRLEELLEALEETGDPRYALEAYALARELSSSSS
B3: il2ra_site1_1z92_sap_15_mot_HHH_b1_04602_000000153_0001_1_19_H_._HHH_b2_06740_0001_0000300030_0000001_0_0001 (protein)
chain: TLAELLREELEEDPRFEEELARMVLEDAGGDPRMAKKFLKRMARKAGIPPEVLERLEEIVEELVR
B4: il2ra_site1_1z92_sap_21_mot_HHH_b1_08214_000000261_0001_20_36_H_._HHH_b1_00191_0001_0000100004_0000001_0_0001_af2pred_0001_af2pred (protein)
chain: SSSSDERLKRSLRIAVENAVKVAGLSEEQKEELEELAEELAERGVDFLEALQIVNELALELSSSS
B5: il2ra_site1_3nfp_normal_mot_HHH_b1_05099_af2_000000125_0001_40_58_H_._4a27984d7eb86086e033fe6076e0d033_0001_1_0001_0000400024_0000001_0 (protein)
chain: SARKLLRKLKELGVLSPEELQLIYRVLREAIRNKDPELARELLELLELAEEGDPEAEERLRELLR
B6: il2ra_site2_3nfp_normal_mot_HHH_b2_08245_000000023_0001_41_55_H_._72a79b14e1a0e827e78e129a6f5f8f0c_0001_1_0001_0000100007_0000001_0 (protein)
chain: DAELSNRIYELAERGDPVAFLLFALLAEVLYKGDPELRRLLEEALEALERGNPEEAEEIVKEALR
B7: il2ra_site1_2b5i_normal_mot_HHH_b2_07267_000000116_0001_43_56_H_._2c3364830c66fee1b0e8427e812e8af0_0001_af2_0001_0000300012_0000001_0 (protein)
chain: DEEHLERLLRIALELGNIERYAKHLFRMLAIAAGDPEEAEEYLEKLLEAAGVPPEVIEEILKEAK
B8: il2ra_site1_2b5i_sap_8_mot_HHH_b2_04131_000000150_0001_1_16_H_._HHH_b2_08022_af2_0001_0000200019_0000001_0_0001_af2pred_dldesign_0_af2pred (protein)
chain: SSSSSAAEPRALFLKAEEAHKAGKDEEALELLKKALELAEARKMHSLARAIELAIKDLLESSSSS
B9: il2ra_site1_3nfp_normal_mot_HHH_b1_01080_af2_000000019_0001_3_16_H_._3b61d7363a4279ee81a7dec5202e1ad9_0001_0001_0000200011_0000001_0 (protein)
chain: NFVERLIEEIEKRDEELSKLLREVLELAEKKQDPRLFELLIKALALIELGNPEEAKKLLEEAAKR
B10: il2ra_site2_2erj_normal_mot_HHH_b1_01851_000000011_0001_43_56_H_._HHH_b1_04282_0001_0000200018_0000001_0 (protein)
chain: SSSSDEEEERIEELAEEAKQITDLRRVFELANEMLRIASERRDQELVELVIELLEEIFELNSSSS
B11: il2ra_site1_3nfp_sap_15_mot_eb5a5eebac1e5153f932cc6c3f4b2787_0001_af2_000000065_0001_18_33_H_._208e20f37e868f9baeee1912733167ef_0001_af2_0001_0000500015_0000001 … (protein)
chain: SSSSSLEKLFEIFEKAARLFLEQGNPEAAKRLVEAAIEDARKAGDEELLELLEELLEEVRRSSSS
B12: il2ra_site2_2erj_normal_mot_HHH_b1_01555_af2_000000123_0001_22_39_H_._HHH_b2_00121_af2_0001_0000200012_0000001_0 (protein)
chain: SSSSSEEEVREVLKEAEEAYKEGDLEAVFELLDEALHLASENNDDEAERLVFEFVEELQNWSSSS
B13: il2ra_site2_3nfp_sap_14_mot_3824cfb560b92ee870597236e80092b0_0001_000000100_0001_16_33_H_._12b039b53749288c6b85c509ede14276_0001_af2_0001_0000300012_0000001_0_0 … (protein)
chain: SSSSDVEERVEELLERAEELYEKGNPREVKRILAEASRLAWENNNEELFMKIAEAALRLFSSSSS
B14: il2ra_site1_3nfp_normal_mot_HHH_b1_05070_af2_000000282_0001_43_57_H_._HHH_b2_01397_af2_0001_0000200011_0000001_0_af2pred_0001_af2pred_swapped (protein)
chain: SSSSNAIELFERLVRRVVELLKKRGDPEAAERFVERAIRDAEKAGDEELVRRLEELLEEIRSSSS
B15: il2ra_site1_2b5i_normal_mot_HHH_b2_04910_000000118_0001_1_19_H_._HHH_b2_07342_0001_0000200023_0000001_1 (protein)
chain: SSSSSEEALELFHRADEADREGDHEEAQELAEEALEIAERENSKSLFRMIRAALRAIRLAGSSSS
B16: il2ra_site2_2erj_normal_mot_HHH_b2_01204_af2_000000056_0001_19_34_H_._HHH_b1_02574_af2_0001_0002000032_0000001_0 (protein)
chain: SSSSSEELRELYELLVEILHAITNGDKEEAEKLLERVEELAEKLQSESVREVVEFLEKLLRSSSS
B17: il2ra_site2_2erj_normal_mot_HHH_b1_07584_000000201_0001_42_55_H_._HHH_b2_01788_af2_0001_0000100002_0000001_0_af2pred_0001_af2pred (protein)
chain: SSSSSEEEEEAEKLAAEAKELALRGNPEEAREVLEKAEELAKEANNPELLKLLELSFRFAESSSS
B18: il2ra_site2_2erj_normal_mot_HHH_b2_07568_000000046_0001_18_34_H_._HHH_b2_00706_0001_0000500045_0000001_0 (protein)
chain: SSSSDVEELLERVEELIEQGNVEEAWEVLREASERVFRLDDPELFRLLIELFERLQELELSSSSS

biological target: il2ra, P01589; assay: yeast display titration

Apparent Kd, inactive:
B1 no binding seen, B2 no binding seen, B3 no binding seen, B4 no binding seen, B5 no binding seen, B6 no binding seen, B7 no binding seen, B8 no binding seen, B9 no binding seen, B10 no binding seen, B11 no binding seen, B12 no binding seen, B13 no binding seen, B14 no binding seen, B15 no binding seen, B16 no binding seen, B17 no binding seen, B18 no binding seen
